Assay results taken from EP1484329A1, “Indole derivatives with apoptosis inducing activity” (Zentaris GmbH, priority 2003, dated 2004).
Where a name gives a salt, the structure may show the parent alone. For at least one compound, name, drawing or mass did not settle the structure.

Tested on: Rindertubulin
Test: Inhibition of tubulin polymerisation in vitro
Format: biochemical, Rind
Details: Tubulin with 30% MAPs; mean of two independent experiments; listed as 3 (V)
Source text: In diesem Test wird durch Zyklen von Polymerisation und Depolymerisation aufgereinigtes Tubulin eingesetzt, welches durch Zugabe von GTP und Erwärmung zur Polymerisation gebracht wird. […]

Compound: Cc1ccc2cc(NC(=O)C(=O)c3cn(Cc4ccc(Cl)cc4)c4ccccc34)ccc2n1 [Verbindung 3, 6-{2-[1-(4-Chlor-benzyl)-1 H-indol-3-yl]-2-oxo-acetylamino}-2-methyl-chinolin Hydrochlorid, reference compound]
- Hemmung der Tubulin-Polymerisation, EC50: 1.27 µg/mL
